In PubChem BioAssay AID652054 (National Center for Advancing Translational Sciences (NCATS), 2013):
The campaign covered roughly 360,000 compounds. About 9,100 (2.5%) were called active. This list was built around the results that the source calls inconclusive (neither active nor inactive); the mix of calls is not that of the screen. Rule as the data show it: active = max response below about -50%; inconclusive = no clear call, values can overlap the other calls; inactive = above that.
% is scaled to controls: 0 for no effect and ±100 for the full control effect.

Chains of the proteins cited; added tags and fusions are not shown.
UniProt P35462, whole entry, looked up: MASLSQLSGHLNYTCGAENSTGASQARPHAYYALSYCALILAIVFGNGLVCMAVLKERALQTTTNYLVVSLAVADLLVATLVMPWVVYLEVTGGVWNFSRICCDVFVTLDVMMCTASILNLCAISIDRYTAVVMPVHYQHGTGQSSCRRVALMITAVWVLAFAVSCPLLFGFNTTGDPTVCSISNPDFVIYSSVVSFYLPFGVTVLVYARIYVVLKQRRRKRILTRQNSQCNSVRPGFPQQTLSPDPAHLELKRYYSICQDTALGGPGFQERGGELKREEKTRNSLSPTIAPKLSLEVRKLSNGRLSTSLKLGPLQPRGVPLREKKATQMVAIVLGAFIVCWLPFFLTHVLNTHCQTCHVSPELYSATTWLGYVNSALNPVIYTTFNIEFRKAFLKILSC

Each compound was assayed against D(3) dopamine receptor (Homo sapiens) (UniProt P35462) (assay: qHTS of D3 Dopamine Receptor Antagonist: qHTS). Settings: D3R cells, DiscoveRx beta-arrestin luminescence, antagonist mode; stronger effect = lower value.
How it was run: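 Cells expressing the human receptor were seeded at 1500 cells/well, incubated overnight at 37 degrees C in 5% CO2, then exposed to library compounds with dopamine controls for 90 minutes at 37 degrees C before luminescent detection.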
`Nc1nc(CN2CCCCCC2)nc(Nc2ccccc2)n1` was tested, and the max response, negative = inhibition was inconclusive: -40%.
`CC(C)C(=O)Nc1nnc(NC(=S)Nc2ccccc2)s1` was tested, and the max response, negative = inhibition was inactive: -7.01%.
With `COc1ccc(OC)c(/C(O)=C/C(=O)C(=O)Nc2ccccc2OC)c1` the max response, negative = inhibition was active: -66.7%.
In the case of `CCO[C@H]1OC(C(=O)N2CCN(C)CC2)=C[C@@H](c2csc3ccccc23)[C@@H]1CCCO`, the max response, negative = inhibition is reported as inconclusive: -33.8%.
In the case of `CCN(CC)CCN(C(=O)c1ccc(C(=O)c2ccccc2)cc1)c1nc2c(OC)cccc2s1`, the max response, negative = inhibition is reported as inactive: -9.15%.
For `CCOC(=O)N1CCN(CC(=O)Nc2cc(C)nn2-c2nc3ccccc3s2)CC1`, the max response, negative = inhibition was inconclusive: -48.4%.
With `O=C(Nc1ccccc1-c1ccccc1)c1ccc(=O)[nH]n1` the max response, negative = inhibition was inactive: -11.5%.
In the case of `CC(C)COC(=O)c1ccc(NC(=O)C2C3C=CC(C3)C2C(=O)O)cc1` (stereo unspecified), the max response, negative = inhibition is reported as inconclusive: -34.6%.
For `COc1ccc(C(C)(O)c2nc(-c3cccc(C(F)(F)F)c3)cs2)cc1` (stereo unspecified), the max response, negative = inhibition was inconclusive: -44.9%.
For `O=C(O)c1ccc(N2C(=O)/C(=C/c3ccc(-c4ccc([N+](=O)[O-])cc4)o3)C=C2c2ccccc2)cc1`, the max response, negative = inhibition was inconclusive: -40.3%.
`O=C1[C@@H]2Cc3c([nH]c4ccccc34)C(c3cccc([N+](=O)[O-])c3)N2C(=O)CN1CCCO` (stereo partly specified) was tested, and the max response, negative = inhibition was active: -58.5%.
In the case of `CCOc1ccc(NC(=O)CSc2nc3ccccc3nc2N2CCOCC2)cc1`, the max response, negative = inhibition is reported as inactive: -18.2%.
`CCc1nc2c(OCc3ccccc3C(=O)OC)cccn2c1N(C)C(=O)c1cccc(OC)c1` was tested, and the max response, negative = inhibition was inactive: 3.17%.
`Cc1ccc(SCC(=O)Nc2ccc(N3CCN(C)CC3)c(F)c2)c(C)c1` was tested, and the max response, negative = inhibition was active: -98.1%.
In the case of `O=C(Nc1ccc(-c2ccccc2)cc1)c1ccccc1`, the max response, negative = inhibition is reported as inactive: 7.38%.
For `O=C(NC(=O)c1cccc(F)c1)Nc1nc(-c2ccc(F)cc2)cc(C(F)(F)F)n1`, the max response, negative = inhibition was inactive: -20%.
With `O=C(Nc1ccc(NC(=O)C2CC2)cn1)c1ccccc1` the max response, negative = inhibition was inactive: 0.222%.
In the case of `Cc1nc(SCC(=O)N(CC(C)C)C2CCS(=O)(=O)C2)c2c(C)c(C)sc2n1` (stereo unspecified), the max response, negative = inhibition is reported as inactive: 54.7%.
With `FC(F)(F)c1ccc(N2CCOCC2)c(NC2=NCCCCC2)c1` the max response, negative = inhibition was inconclusive: -40.7%.
In the case of `Oc1c(C(c2ccccc2Cl)N2CCCC2)ccc2cccnc12` (stereo unspecified), the max response, negative = inhibition is reported as active: -52.9%.
With `COc1cc(OC)c(CN2CCCCCCC2)cc1Br` the max response, negative = inhibition was inconclusive: -40.2%.
For `COc1c(C)cc(Br)cc1C(=O)Nc1ccc(S(N)(=O)=O)cc1`, the max response, negative = inhibition was inactive: 9.19%.
`COc1ccccc1N1CCN(CC(=O)Nc2cc(F)ccc2C)CC1` was tested, and the max response, negative = inhibition was active: -83.1%.
`CC(C)c1ccc(NC(=O)Nc2nnc([C@@H]3C[C@H](O)[C@@H](CO)O3)s2)cc1` was tested, and the max response, negative = inhibition was inactive: -20.8%.
`O=C(/C=C/c1ccccc1)NC(NC(=S)Nc1cc(Cl)ccc1Cl)C(Cl)(Cl)Cl` (stereo unspecified) was tested, and the max response, negative = inhibition was inconclusive: -31.7%.
`CCCCNc1c(-c2cccc(-c3cc(C(C)=O)cs3)c2)nc2cc(C)ccn12` was tested, and the max response, negative = inhibition was inactive: 26.5%.
For `CN1C(=O)C2(c3ccccc31)C1CCCC=C1C(C#N)=C(N)C2(C#N)C#N` (stereo unspecified), the max response, negative = inhibition was inconclusive: -37.7%.
For `CCN1C(=O)C(Cc2nc3ccccc3c(=O)n2C)c2ccccc21` (stereo unspecified), the max response, negative = inhibition was inconclusive: -36%.
For `CCCN(CCC)CCNC(=O)c1cc2c(=O)n(CC)c3ccccc3c2s1`, the max response, negative = inhibition was inconclusive: -44%.
With `Cc1cccc(NC(=O)c2cccc(N3C(=O)C4CCC(C)CC4C3=O)c2)c1C` (stereo unspecified) the max response, negative = inhibition was inconclusive: -35.3%.
With `CCc1ccccc1OCC(=O)NNCC(=O)Nc1cccc(C#N)c1` the max response, negative = inhibition was inconclusive: -32.2%.
With `O=C(CSc1ccc(-c2ccc(Cl)cc2)nn1)Nc1ccc2c(c1)OCCO2` the max response, negative = inhibition was inactive: 0.688%.
For `Cc1cc(C)nc(NC(=O)COc2cc(Cl)cc(Cl)c2)n1`, the max response, negative = inhibition was inconclusive: -37.6%.
With `O=C(Nc1ccnn1C1CCN(C2CCCCC2)CC1)c1cccc(F)c1` the max response, negative = inhibition was inconclusive: -44%.
In the case of `Cc1ccc(CN2CCN(CC(=O)NCCCN3CCN(c4ccc(F)cc4)CC3)C2=O)cc1`, the max response, negative = inhibition is reported as inconclusive: -46.3%.
For `Cc1cc(N2CCN(C)CC2)nc2ccc(NC(=O)CCC3CCCC3)cc12`, the max response, negative = inhibition was inconclusive: -34.5%.
With `CC(C)(C)C1CCC(OCC(O)CN2CCN(Cc3ccccc3)CC2)CC1` (stereo unspecified) the max response, negative = inhibition was inconclusive: -46.1%.
In the case of `Cc1cnc(CN2CCc3c([nH]c4ccccc34)C2CC(C)C)[nH]1` (stereo unspecified), the max response, negative = inhibition is reported as inconclusive: -35.8%.
With `COc1ccc(/C=C2\CCc3ccccc3C2=O)cc1Cn1nc(C)cc1C` the max response, negative = inhibition was active: -79.1%.
In the case of `COC(=O)c1ccccc1NC(=O)N1CCN(C/C=C/c2ccccc2)CC1`, the max response, negative = inhibition is reported as inconclusive: -49.3%.
`C=CCn1c(O)c(N=Nc2ccccc2O)c2ccccc21` was tested, and the max response, negative = inhibition was inactive: 0%.
For `O=C(NCc1ccco1)c1cc(-c2ccncc2)nc2ccccc12`, the max response, negative = inhibition was inconclusive: -33.7%.
`C=CCn1c(Cc2cccs2)nnc1SCC(=O)NC1CC1` was tested, and the max response, negative = inhibition was inactive: 6.42%.
With `COC(=O)c1ccc(NC(=O)C2C3CCC(C3)C2C(=O)O)cc1` (stereo unspecified) the max response, negative = inhibition was inconclusive: -35.3%.
In the case of `O=C(c1cc(-c2cccc(Cl)c2)nc2ccccc12)N1CCCC1`, the max response, negative = inhibition is reported as inactive: 1.33%.
For `O=C(N/N=C\c1ccc(F)cc1)c1cc(OCC(F)(F)F)ccc1OCC(F)(F)F`, the max response, negative = inhibition was inconclusive: -35.8%.
In the case of `CCCCOc1ccc(C(=O)NCC(=O)NNC(=O)C2COc3ccccc3O2)cc1` (stereo unspecified), the max response, negative = inhibition is reported as inactive: 17.9%.
With `Cc1ccc(N=Nc2c(N)n[nH]c2N)cc1` the max response, negative = inhibition was inconclusive: -37.4%.
`CCOC(=O)[C@]12CCCC=C1N(Cc1cccc3ccccc13)C(=O)[C@H](CC(=O)NCC13CC4CC(CC(C4)C1)C3)C2` was tested, and the max response, negative = inhibition was inactive: -25.2%.
In the case of `CN(C(=O)CSc1cccc[n+]1[O-])C1CCCCC1`, the max response, negative = inhibition is reported as inconclusive: -34.1%.
For `O=C1NC(=O)C2C1C(c1cccs1)NN2Cc1ccccc1` (stereo unspecified), the max response, negative = inhibition was inconclusive: -31.4%.
For `O=C(NC1CCCCC1)c1[nH]c(C(F)(F)F)nc1-c1ccccc1`, the max response, negative = inhibition was inactive: -3.73%.
In the case of `COc1ccccc1NS(=O)(=O)c1cccc(C(=O)NC2CCN(Cc3ccccc3)CC2)c1`, the max response, negative = inhibition is reported as active: -94.8%.
For `NC(COCc1ccccc1)c1csc(Nc2ccc(C(=O)c3ccccc3)cc2)n1` (stereo unspecified), the max response, negative = inhibition was inactive: 29.3%.
`Cc1ccc2[nH]c(C(=O)NN=C3CCCCC3)c(-c3ccccc3)c2c1` was tested, and the max response, negative = inhibition was inconclusive: -32.1%.
In the case of `CCOC(=O)CSC1=C(C#N)C(c2ccccc2Cl)C(C(=O)OC)C(=O)N1` (stereo unspecified), the max response, negative = inhibition is reported as inconclusive: -31.5%.
`O=[N+]([O-])c1cc(CN2CCN(c3cccc(C(F)(F)F)c3)CC2)c2cccnc2c1O` was tested, and the max response, negative = inhibition was active: -106%.
`COc1cc(OC)cc(C(=O)N[C@H](C(=O)Nc2nc3c(s2)CCCC3)C(C)C)c1` was tested, and the max response, negative = inhibition was inconclusive: -37.4%.
`CC(NC(=O)C(C)N1C(=O)C2C3CC(C(Br)C3Br)C2C1=O)c1ccccc1` (stereo unspecified) was tested, and the max response, negative = inhibition was inconclusive: -36.8%.
In the case of `CCOC(=O)c1ccc(NC(=O)COc2ccccc2CNCCO)cc1`, the max response, negative = inhibition is reported as inactive: 5.28%.
`Cc1cc2nc(C3CCN(CC4COc5ccccc5O4)CC3)[nH]c2cc1C` (stereo unspecified) was tested, and the max response, negative = inhibition was active: -50.2%.
In the case of `COCCOCC(O)CN1CCN(c2ccc(C)cc2)CC1` (stereo unspecified), the max response, negative = inhibition is reported as active: -61.8%.
`CCOc1ccccc1OCCN1CCC(Cc2ccccc2)CC1` was tested, and the max response, negative = inhibition was active: -99.1%.
For `CC1CN(C(=O)CCC(=O)NCCCN2CCC(Cc3ccccc3)CC2)c2cc(Cl)ccc2O1` (stereo unspecified), the max response, negative = inhibition was active: -69.6%.
For `CCN(c1ccccc1)S(=O)(=O)c1cc(C(=O)NCc2ccccn2)ccc1C`, the max response, negative = inhibition was inactive: 4.76%.
In the case of `Cc1cccc(OCCOc2ccccc2C=C(C#N)C#N)c1`, the max response, negative = inhibition is reported as inconclusive: -43%.
With `O=C(NNC(=O)c1ccncc1)Nc1ccc([N+](=O)[O-])cc1` the max response, negative = inhibition was inconclusive: -38.9%.
`COc1ccc2nc(SCC(=O)NC3CCCCC3)[nH]c2c1` was tested, and the max response, negative = inhibition was inactive: 5.33%.
With `CC1CCCC(NC(=O)COC(=O)c2ccccc2Sc2ccccc2C#N)C1C` (stereo unspecified) the max response, negative = inhibition was inconclusive: -36.2%.
In the case of `CCC[n+]1c(C)sc2c3c(ccc21)CCCC3`, the max response, negative = inhibition is reported as inactive: -24.8%.
With `O=C(N/N=C/c1ccnc2ccccc12)c1ccccc1O` the max response, negative = inhibition was inconclusive: -30.2%.
`CCCN(CC(=O)Nc1ccc(Cl)cc1Cl)C(=O)CC(NC(C)=O)c1ccccc1` (stereo unspecified) was tested, and the max response, negative = inhibition was inconclusive: -35.2%.
For `Cc1cccc(N2C(=O)CS/C2=N\NC(=O)c2ccc(Br)cc2)c1C`, the max response, negative = inhibition was active: -78.9%.
In the case of `CC(C)(C)S(=O)N1Cc2cc(C(=O)NCc3ccc(Oc4ccccc4)cc3)nc(-c3cccc(-c4cc5ccccc5o4)c3)c2[C@H]1CCO` (stereo partly specified), the max response, negative = inhibition is reported as inactive: 41.6%.
In the case of `O=C(C1CCCCC1)N1C[C@H](n2cc(C3CC3)nn2)[C@@H](O)C[C@@H]1c1ccc(Cl)cc1`, the max response, negative = inhibition is reported as inconclusive: -33.5%.
In the case of `O=S(=O)(O)c1cccnc1SCc1ccccc1`, the max response, negative = inhibition is reported as inactive: 37%.
For `CCOC(=O)Cn1c(-c2cccnc2Cl)nc2cc(Cl)c(Cl)cc21`, the max response, negative = inhibition was inconclusive: -33.7%.
With `O=C1c2cccc3cccc(c23)C(=O)C1(O)O` the max response, negative = inhibition was inconclusive: -48.8%.
`O=C(O)c1ccc(C=C(c2nc3ccccc3s2)c2nc3ccccc3s2)cc1` was tested, and the max response, negative = inhibition was inconclusive: -31.2%.
In the case of `Cc1cccc(N2C(=O)N3[C@H](c4ccc(Br)cc4)[C@@H]4C(=O)N(C(C)(C)C)C(=O)[C@@H]4[C@]3(Cc3ccc(Cl)cc3)C2=O)c1`, the max response, negative = inhibition is reported as inconclusive: -36.3%.
In the case of `O=[N+]([O-])c1ccc(O)c(C=NNc2ccc(S(=O)(=O)O)cc2)c1`, the max response, negative = inhibition is reported as inconclusive: -48.2%.
With `CCCCNCCOCCOc1ccc(F)cc1` the max response, negative = inhibition was active: -53.8%.
For `CN(C)S(=O)(=O)c1cccc(NC(=S)N/N=C/c2cc(Br)ccc2O)c1`, the max response, negative = inhibition was inconclusive: -30.1%.
In the case of `O=C(C1COc2ccccc2O1)N1CCN(Cc2ccc3c(c2)OCO3)CC1` (stereo unspecified), the max response, negative = inhibition is reported as inconclusive: -37.5%.
In the case of `CCOc1cc(NC(=S)Nc2ccc(Cl)cc2)c(OCC)cc1NC(C)=O`, the max response, negative = inhibition is reported as inactive: 0.404%.
In the case of `CCc1nnc(NS(=O)(=O)c2ccc(NC(=S)NC(=O)c3ccc(F)cc3)cc2)s1`, the max response, negative = inhibition is reported as inconclusive: -33%.
